Test results as given in publication PMC9589254 (Frontiers in Molecular Biosciences, 2022).
Strings that start with PEPTIDE1 are HELM notation: dots part the residues, brackets hold end groups and non-standard residues.

Assay: general procedure: Fmoc solid-phase peptide synthesis; rink-amide resin (GLC, Shanghai, China); HBTU/DIPEA in DMF
Conditions: whole synthesis

Substance | final HPLC purity (run 1) [%] | final HPLC purity (run 2) [%]
PEPTIDE1{K.E.R.T.S.R.[am]}$$$$V2.0 | 99.4 | 98 ± 1.0
PEPTIDE1{S.M.D.M.S.I.E.[am]}$$$$V2.0 | 95.1 | 94 ± 1.5
